PubChem BioAssay AID1224829, NIAID – 2016

Screen: 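Genes needed for LPS-driven NF-kappaB p65 nuclear entry in mouse macrophages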 (follow-up of hits)
Cell system: mouse RAW264.7 G9 macrophage reporter cells
Knock-down reagent: single siRNA against mouse genes, 100 nM
Time to read-out: 2 days of siRNA knock-down, then 40 min of LPS before fixing
Challenge: LPS (Salmonella minnesota R595) at 10 ng/ml
Read-out: 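High-content images after 40 min LPS exposure; GFP-p65 nucleus to surrounding ring signal ratio, normalised to plate median and non-targeting control wells, expressed as z-score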
Scale: p65 translocation z-score and gene median z-score, per vendor: higher = more nuclear NF-kappaB p65 after LPS
Rule for the call: 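An siRNA is called active when the mean z-score of its two replicates is above 2 or below -2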
Meaning of the calls: active = changed p65 translocation (either direction); inactive = no clear change
Here is an unselected part of about 3,800 reagents tested. 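Calls cover raised and lowered translocation; gene median uses one vendor's three siRNAs; qiagen siRNAs acted more weakly than ambion siRNAs.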 Entries without a mark were called inactive. Reagents against one gene are numbered here. Reagent sequences are not shown.

| target | reagent no. | siRNA vendor or control pool | p65 translocation z-score, replicate mean | p65 translocation z-score, replicate 1 | p65 translocation z-score, replicate 2 | gene median z-score, per vendor |
| --- | --- | --- | --- | --- | --- | --- |
| Trim2 | 1 | ambion single siRNA | 1.34 | 2.52 | 0.152 | -3.07 |
| Trim2 | 2 | ambion single siRNA | -3.07 (active) | -2.24 | -3.89 | -3.07 |
| Trim2 | 3 | ambion single siRNA | -7.72 (active) | -7.42 | -8.03 | -3.07 |
| Trim2 | 4 | qiagen single siRNA | 0.49 | -0.149 | 1.13 | -0.45 |
| Trim2 | 5 | qiagen single siRNA | -0.225 | -0.75 | 0.301 | -0.45 |
| Trim2 | 6 | qiagen single siRNA | -4.27 (active) | -3.67 | -4.87 | -0.45 |
| Or5w20 | 1 | ambion single siRNA | -2.63 (active) | -2.59 | -2.67 | -3.36 |
| Or5w20 | 2 | ambion single siRNA | – | – | – | -3.36 |
| Or5w20 | 3 | ambion single siRNA | -4.93 (active) | -4.05 | -5.82 | -3.36 |
| Or5w20 | 4 | qiagen single siRNA | -0.837 | -0.245 | -1.43 | -1.58 |
| Or5w20 | 5 | qiagen single siRNA | 0.0196 | -1.72 | 1.76 | -1.58 |
| Or5w20 | 6 | qiagen single siRNA | -2.5 (active) | -2.35 | -2.65 | -1.58 |
| Hras | 1 | ambion single siRNA | -1.98 | -2.39 | -1.57 | -2.39 |
| Hras | 2 | ambion single siRNA | -4.34 (active) | -5.13 | -3.55 | -2.39 |
| Hras | 3 | ambion single siRNA | 1.53 | 1.53 | – | -2.39 |
| Hras | 4 | qiagen single siRNA | -2.46 (active) | -2.39 | -2.53 | -1.15 |
| Hras | 5 | qiagen single siRNA | -1.15 | -1.15 | – | -1.15 |
| Hras | 6 | qiagen single siRNA | 1.5 | 0.842 | 2.16 | -1.15 |
| Eif3e | 1 | ambion single siRNA | 0.899 | 0.557 | 1.24 | -0.885 |
| Eif3e | 2 | ambion single siRNA | -0.966 | -1.11 | -0.825 | -0.885 |
| Eif3e | 3 | ambion single siRNA | -3.02 (active) | -0.945 | -5.1 | -0.885 |
| Eif3e | 4 | qiagen single siRNA | 1.64 | 1.52 | 1.75 | 1.52 |
| Eif3e | 5 | qiagen single siRNA | -1.77 | -1.77 | – | 1.52 |
| Eif3e | 6 | qiagen single siRNA | 1.7 | 0.657 | 2.75 | 1.52 |
| Dnm2 | 1 | ambion single siRNA | 1.31 | 0.613 | 2.02 | -0.0961 |
| Dnm2 | 2 | ambion single siRNA | -1.18 | -1.56 | -0.805 | -0.0961 |
| Dnm2 | 3 | ambion single siRNA | -0.384 | 1.16 | -1.93 | -0.0961 |
| Dnm2 | 4 | qiagen single siRNA | 1.4 | 1.79 | 1.01 | 0.688 |
| Dnm2 | 5 | qiagen single siRNA | -0.474 | -1.76 | 0.81 | 0.688 |
| Dnm2 | 6 | qiagen single siRNA | -0.343 | -1.25 | 0.566 | 0.688 |
| Psme3 | 1 | ambion single siRNA | 0.82 | 2.06 | -0.424 | -1.31 |
| Psme3 | 2 | ambion single siRNA | -1.31 | -1 | -1.63 | -1.31 |
| Psme3 | 3 | ambion single siRNA | -3.49 (active) | -3.84 | -3.14 | -1.31 |
| Psme3 | 4 | qiagen single siRNA | 1.37 | 1.23 | 1.52 | 0.744 |
| Psme3 | 5 | qiagen single siRNA | 0.216 | -0.29 | 0.722 | 0.744 |
| Psme3 | 6 | qiagen single siRNA | 0.726 | 0.685 | 0.766 | 0.744 |
| Abcb1a | 1 | ambion single siRNA | -1.27 | -1.04 | -1.5 | -1.27 |
| Abcb1a | 2 | ambion single siRNA | -0.33 | 0.0599 | -0.719 | -1.27 |
| Abcb1a | 3 | ambion single siRNA | -4.69 (active) | -5.19 | -4.19 | -1.27 |
| Abcb1a | 4 | qiagen single siRNA | 2.38 (active) | 1.62 | 3.15 | -1.24 |
| Abcb1a | 5 | qiagen single siRNA | -2.81 (active) | -2.25 | -3.37 | -1.24 |
| Abcb1a | 6 | qiagen single siRNA | -1.24 | -1.85 | -0.628 | -1.24 |
| Opn4 | 1 | ambion single siRNA | -4.24 (active) | -4.91 | -3.57 | -3.57 |
| Opn4 | 2 | ambion single siRNA | -2.78 (active) | -2.78 | – | -3.57 |
| Opn4 | 3 | ambion single siRNA | -4.02 (active) | -6.27 | -1.77 | -3.57 |
| Opn4 | 4 | qiagen single siRNA | 1.21 | -0.174 | 2.6 | -0.0865 |
| Opn4 | 5 | qiagen single siRNA | 0.349 | 0.00113 | 0.697 | -0.0865 |
| Opn4 | 6 | qiagen single siRNA | -1.03 | -0.415 | -1.65 | -0.0865 |
| Or2y1b | 1 | ambion single siRNA | -1.42 | -2.43 | -0.411 | -2.43 |
| Or2y1b | 2 | ambion single siRNA | -3.07 (active) | -4.81 | -1.32 | -2.43 |
| Or2y1b | 3 | ambion single siRNA | -2.5 (active) | -2.5 | – | -2.43 |
| Or2y1b | 4 | qiagen single siRNA | 3.31 (active) | 2.79 | 3.82 | -0.562 |
| Or2y1b | 5 | qiagen single siRNA | -1.09 | -1.18 | -0.998 | -0.562 |
| Or2y1b | 6 | qiagen single siRNA | -0.801 | -1.48 | -0.126 | -0.562 |

An excerpt from above, reduced to “p65 translocation z-score, replicate 1”:
Abcb1a #1, siRNA vendor or control pool ambion single siRNA = -1.04
Abcb1a #2, siRNA vendor or control pool ambion single siRNA = 0.0599
Abcb1a #3, siRNA vendor or control pool ambion single siRNA = -5.19 (active)
Abcb1a #4, siRNA vendor or control pool qiagen single siRNA = 1.62 (active)
Abcb1a #5, siRNA vendor or control pool qiagen single siRNA = -2.25 (active)
Abcb1a #6, siRNA vendor or control pool qiagen single siRNA = -1.85
Opn4 #1, siRNA vendor or control pool ambion single siRNA = -4.91 (active)
Opn4 #2, siRNA vendor or control pool ambion single siRNA = -2.78 (active)
